From article PMC5608759

Amino acid sequences for entries named in this document (tags omitted).
UniProt P04150: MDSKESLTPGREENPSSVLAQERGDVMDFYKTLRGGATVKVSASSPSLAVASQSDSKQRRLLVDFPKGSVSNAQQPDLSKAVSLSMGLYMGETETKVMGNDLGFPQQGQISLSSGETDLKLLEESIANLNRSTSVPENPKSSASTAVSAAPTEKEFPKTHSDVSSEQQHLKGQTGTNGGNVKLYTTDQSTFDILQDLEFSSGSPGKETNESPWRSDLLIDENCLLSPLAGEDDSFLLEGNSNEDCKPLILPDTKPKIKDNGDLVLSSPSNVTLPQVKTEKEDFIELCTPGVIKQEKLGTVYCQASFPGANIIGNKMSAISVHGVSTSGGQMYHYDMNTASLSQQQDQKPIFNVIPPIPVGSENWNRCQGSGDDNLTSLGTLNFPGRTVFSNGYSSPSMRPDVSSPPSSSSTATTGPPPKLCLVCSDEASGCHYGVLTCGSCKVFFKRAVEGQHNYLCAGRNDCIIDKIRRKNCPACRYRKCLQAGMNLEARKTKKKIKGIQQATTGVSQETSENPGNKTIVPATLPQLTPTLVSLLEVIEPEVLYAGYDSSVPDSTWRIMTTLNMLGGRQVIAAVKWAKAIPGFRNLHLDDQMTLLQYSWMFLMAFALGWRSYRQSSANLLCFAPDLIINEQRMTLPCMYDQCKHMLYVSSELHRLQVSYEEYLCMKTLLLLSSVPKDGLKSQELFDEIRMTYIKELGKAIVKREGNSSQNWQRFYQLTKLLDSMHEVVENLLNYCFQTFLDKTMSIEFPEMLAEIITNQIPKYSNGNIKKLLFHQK

B1: 19 S proteasome regulatory subunit Rpt1 (protein, UniProt O42931 1-438)
chain: MPPKEDWEKYQKPVDTEEENDKNPPPLDEGDIELLKSYATGPYARELAAIKEDTEAVLKRINDTVGIKESDTGLAPISFWDVAADRQRMSEEQPLQVARCTKIIENEQSAEKNAYVINLKQIAKFVVSLGERVSPTDIEEGMRVGCDRNKYAIQLPLPPKIDPSVTMMQVEEKPDVTYGDVGGCKEQIERLREVVELPLLSPERFVKLGIDPPKGIMLYGPPGTGKTLCARAVANRTDATFIRVIGSELVQKYVGEGARMVRELFEMARTKKACIIFFDEIDAIGGARFDDGAGGDNEVQRTMLELITQLDGFDPRGNIKVLFATNRPNTLDEALMRPGRIDRKVEFGLPDLEGRAHILRIHAKSMAIDKDIRWELIARLCPSQTGAELRSVCTEAGMFAIRARRRVATEKDFLDAVQKVVKGNQKFSSTADYMNMSS
B2: translation initiation factor eIF3a (protein, UniProt O74760 1-932)
chain: MAPPQGKPENVLRLADELIALDQHSSALQSLHETIVLKRSRNAQGFSLEPIMMRFIELCVHLRKGKIAKEGLYTYKNAVQNTSVTAIENVVKHFIELANKRVQEAQEKADKISVEYVDDLEATETPESIMMSLVSGDLSKSRTDRALVTPWLKFLWDAYRTVLDILRNNARLEVMYQLIANSAFQFCLKYQRKTEFRRLCELLRSHLGNASKFSNAPHSINLNDAETMQRHLDMRFSQLNVAVELELWQEAFRSIEDIHSLLTFSKRAPAAVMLGNYYRKLIKIFLVCDNYLLHAAAWNRYFTFTNVQKPATANFVILSALSIPIIDANKLSGPSIEAEDAKSKNARLALLLNLSKTPTRETLIKDAISRGVLSFCDQAIRDLYQILEVEFHPLSICKKLQPIIKRLAESNDTAQYIRPLQQVILTRLFQQLSQVYDSISLKYVMDLATFEEPYDFNPGQIEKFIMNGNKKGAFSIRLNHIENSISFSSDLFSNPIKSSDSVSLQSTPSELITSQLTRIAKSLSSVLMRFDTDFCLLRKQQAEAAYERAQAGVEQERKAVIAQRSLLELRRGQADTLATQREAELAAQRALKQKQESEAESLRVQEEINKRNAERIRREKEAIRINEAKKLAEELKAKGGLEVNAEDLEHLDADKLRAMQIEQVEKQNKSMNERLRVIGKRIDHLERAYRREAIPLWEEDAKQQAEHDREIFYEREKQRKEVQERKHEQAIKDKKAFAQFASYIHAYKQNIDDERDKAYQEAYAKAKNVIDAERERQRKEIFEQKLAEAIREAEEEAARAAEEEANRELHEQEEAQKRAIEERTRAAREAKEREQREMAEKLERQRRIQQERDEEISRKLAEKAAARRANIGASSPSPGAWRRGGASAGGVSRDSPRYSRGGYSRGSVPPRETLAPSKGAYVPPSRRNQQQQ
B3: translation initiation factor eIF3c (protein, UniProt O14164 1-918)
chain: MSRFFKGGSSDSDAESVDSSEENRLTSSRLKKQDDSSSEEESSEEESASSSESESSEEESESEESEVEVPKKKAVAASEDSESDSESSEEEEETESEEDSEVSDESESESESESESEEESESEEESDESERSGPSSFLKKPEKEEAKPAGLKFLRGESSEESSDEEEGRRVVKSAKDKRYEEFISCMETIKNAMSSNNWIVVSNEFDHLNKVSQKCKEAGRNPPPYIEFLSALDQKLESADKAFIKSLDAANGRAFNALKQRVRKNNRQFQSDIDRYRKDPEGFMKPAELNEIPKPAGKAGQDEVIVDGVATRGIVAPTEGLGKPEEITPADIFKYLRAIFEARGKKSTDRSEQIRLLEKLSTIAVTDYQRLRVKVALLAVRFDINTGSGQYMPIDQWNAALTELHSILDIFDANPKIVIVEQVEDENEEEEEAIAAAENNNGVIQVQGSVVSFLERLDDEFTRSLQMIDPHTPEYIDRLKDETSLYTLLVRSQGYLERIGVVENTARLIMRRLDRVYYKPEQVIRANEEVAWRSFPPTFDLTITPRATTTTPDILIHSLCVYLYNNGVSLLRTRAMLCHIYHEALQNRFYKARDMLLMSHLQDSVHAADIATQILHNRTMVQIGLCAFRNGMVQETQYALQDISTTGRVKELLGQGIQAPKFGQFTPDQDRLDKQLVLPFHMHINLELLECVYLTCSMLMEIPAMAAASSTASDSRKRVISRPFRRMLEYIDRQLFVGPPENTREYIMQASKALADGEWRRCEEFIHAIKIWSLMPDADKIKQMLSEKIREEGLRTYLLAYAAFYDSVSLEFLATTFDLPVQRVTVIVSRLLSKREIHAALDQVHGAIIFERVEINKLESLTVSLSEKTAQLNEANEKLYEQKTQHTNPQENRRRDKGGSVKRRNERTENRNRSDMN
B4: poly(A)-binding protein (protein, UniProt P31209 1-653)
chain: MPSTDLKKQADAAVESDVNTNNEAVESSTKEESSNTPSTETQPEKKAEEPEAAAEPSESTSTPTNASSVATPSGTAPTSASLYVGELDPSVTEAMLFELFNSIGPVASIRVCRDAVTRRSLGYAYVNFHNMEDGEKALDELNYTLIKGRPCRIMWSQRDPSLRKMGTGNVFIKNLDPAIDNKALHDTFSAFGKILSCKVAVDELGNAKGYGFVHFDSVESANAAIEHVNGMLLNDKKVYVGHHVSRRERQSKVEALKANFTNVYIKNLDTEITEQEFSDLFGQFGEITSLSLVKDQNDKPRGFGFVNYANHECAQKAVDELNDKEYKGKKLYVGRAQKKHEREEELRKRYEQMKLEKMNKYQGVNLFIKNLQDEVDDERLKAEFSAFGTITSAKIMTDEQGKSKGFGFVCYTTPEEANKAVTEMNQRMLAGKPLYVALAQRKEVRRSQLEAQIQARNQFRLQQQVAAAAGIPAVQYGATGPLIYGPGGYPIPAAVNGRGMPMVPGHNGPMPMYPGMPTQFPAGGPAPGYPGMNARGPVPAQGRPMMMPGSVPSAGPAEAEAVPAVPGMPERFTAADLAAVPEESRKQVLGELLYPKVFVREEKLSGKITGMLLEMPNSELLELLEDDSALNERVNEAIGVLQEFVDQEPGFTE
B5: nop9 (protein, UniProt Q92347 1-655)
chain: MPKKRKTRGKKHSAKQKEEEVNSVVSPGIAKNDEGAGNDEGAYQVNRYTNEPVQPFFGALDPEEEKYFQQAEQAFANHFTRENEDTRFFVDSIYREVQGKELIVCNNVFGSKVLEKLFPLSTSRQIKSFFSALNGHYVELIQTTFGSYAFEKLLSHMAAILNLETQGVTEDQDDVLEGENENVFMTAETLLMYMYNEIRPEVSMLMSHKLAVHVLGKIFLLLDGYRFVYHDGNRTTMESISVPESFPQFAYSIIDSATDNLDTPELRAYCVDKYASQIMRAFIRIDFERSKKTKKKHDPRLVSKLLLSNEYDLKELPFMETLLKDETGSRILEVIVENMSASHLLRFYAVFEGRFYRLCVHPIANFIMQRYIRRLGRKEIGSVIDELKKNTDNIIRKSFLPVLRTLLEKSNHLHCYQDDIFSMIQTSVTNSGKDANIIPCLLRSKHKRDKANPENKERKLVNNLLGAQLLEEMLHCEKQHIQLLLDSVLDLSKEQILEYCLETVSSHLIEGILDLSDLNPVFLKKFLNILSGSFATLAVSAPGSHIVDKAWKATRALPLYRTRIVRELAEGGDDVKFDFYGKKVCSNWKVELFRRAPDEWYRFMKQDEPSKRVHERARQYGRIVSGSSANTQPLGEKRSTENDEELESGPKRVKV
B6: eIf4G (protein, UniProt Q10475 1-1403)
chain: MSSKPPSNTPKFSYARALASSQSNKSNSTKASENNTATAEKQAVKPSGVEPTNTSRANAQKKTESTGKITSEADTEKYNSSKSPVNKEGSVEKKSSEKSSTNNKPWRGDNTSKPSANSSAERTSSQHQKPETSSQIGKDNAAPVENVNEKSTSQETAPPVSTVPIQFGSITRNAAIPSKPKVSGNMQNKSGVSSYSSKSQSVNSSVTSNPPHTEEPVAAKPEASSTATKGPRPTTSASNTNTSPANGAPTNKPSTDINTTDPATQTTQVSASNSPALSGSSTPSNTSSRSNRQNHGNFSEKRHYDRYGNSHPSYNKYSHYQHGFNYNNSGNNRNESGHPRFRNSRRNYNNQGAYPTYMSNGRSANQSPRNNPQNVNNGSTPIQIPVSLQTPYGQVYGQPQYIVDPNMVQYGPILQPGYVPQYYPVYHQTPYTQNFPNMSRSGSQVSDQVVESPNSSTLSPRNGFAPIVKQQKKSSALKIVNPVTHTEVVVPQKNASSPNPSETNSRAETPTAAPPQISEEEASQRKDAIKLAIQQRIQEKAEAEAKRKAEEKARLEAEENAKREAEEQAKREAEEKAKREAEEKAKREAEEKAKREAEENAKREAEEKAKREAEEKAKREAEEKAKREAEEKAKREAEEKAKREAEEKAKREAEEKAKREAEENAKREAEEKAKREAEENAKREAEEKVKRETEENAKRKAEEEGKREADKNPEIKSSAPLASSEANVDTSKQTNATEPEVVDKTKVEKLKASEGKSTSSLSSPSHSTSSKRDLLSGLESLSLKTNPKSEQCLESLLNSQFITDFSALVYPSTIKPPSTEEALKAGKYEYDVPFLLQFQSVYTDKPMKGWDERMKETVASAFSDKSSRGMYSSSRQSSRSGSNTHSHAGPGFGGPSERKGISRLGIDRGFSSSGAGFGSGSNYKSAPSRGVSHHGHGGMSGSHRGSQRGSRRGGGERDKPDPSSLTIPVDQVAPLQLSANRWQPKKLTEKPAETKGEDEEALLPPEVVQRKVKGSLNKMTLEKFDKISDQILEIAMQSRKENDGRTLKQVIQLTFEKATDEPNFSNMYARFARKMMDSIDDSIRDEGVLDKNNQPVRGGLLFRKYLLSRCQEDFERGWKANLPSGKAGEAEIMSDEYYVAAAIKRRGLGLVRFIGELFKLSMLSEKIMHECIKRLLGNVTDPEEEEIESLCRLLMTVGVNIDATEKGHAAMDVYVLRMETITKIPNLPSRIKFMLMDVMDSRKNGWAVKNEVEKGPKTIAEIHEEAERKKALAESQRPSSGRMHGRDMNRGDSRMGGRGSNPPFSSSDWSNNKDGYARLGQGIRGLKSGTQGSHGPTSLSSMLKGGSVSRTPSRQNSALRREQSVRAPPSNVAVTSANSFELLEEHDHDNDGGQKDSNSKTSS

Target: human glucocorticoid receptor alpha (GRα), expressed in S. pombe (human) (UniProt P04150)
Assay: affinity purification with mass spectrometry; anti-GR antibody on epoxy-activated magnetic beads; lysates of S. pombe expressing hGRα (empty vector as control) grown at 30 °C or 39 °C (heat shock 30 min); lysis buffer 250 mM NaCl, 20 mM Tris pH 7.5, 1% Triton X-100, 100 mM potassium acetate; 4 °C, 1 hour, 6 washes; SDS-PAGE and LC-MS/MS

binding, binds:
B1
B2
B3
B4
B5
B6

These are yes or no findings as the source states them, for the method shown. In cells and extracts the contact can be indirect. A yes stands for co-enrichment or nearness to the bait. Other partners may have been found.
